Binding data for three molecules are collected here from publication doi:10.1101/2020.03.15.992727.

Chains of the proteins cited; added tags and fusions are not shown. Lines headed by an entry give the natural chain unless they say otherwise; changes in a name come on top.
UniProt P56962, whole entry: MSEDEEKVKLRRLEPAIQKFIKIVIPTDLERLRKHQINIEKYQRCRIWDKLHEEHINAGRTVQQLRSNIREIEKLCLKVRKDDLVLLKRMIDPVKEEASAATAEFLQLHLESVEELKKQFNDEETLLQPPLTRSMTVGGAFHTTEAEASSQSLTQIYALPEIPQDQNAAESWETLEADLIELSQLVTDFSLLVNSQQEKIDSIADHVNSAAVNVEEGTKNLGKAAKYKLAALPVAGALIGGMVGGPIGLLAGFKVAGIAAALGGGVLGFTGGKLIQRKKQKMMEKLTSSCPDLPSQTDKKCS

Substitutions are numbered along the chain they refer to. Numbers in names are those of the source. No constants are given. Whether binding was seen depends on the method and setting. In cells and extracts the contact can be indirect. Some binding calls cover weakened binding; strength is not graded here. Where a sequence is shown, tags or fusion partners need not be part of it.

Assay [1] deals with T1, GFP-tagged wild-type (WT) human Ykt6 (human) (UniProt O15498).
T1 sequence: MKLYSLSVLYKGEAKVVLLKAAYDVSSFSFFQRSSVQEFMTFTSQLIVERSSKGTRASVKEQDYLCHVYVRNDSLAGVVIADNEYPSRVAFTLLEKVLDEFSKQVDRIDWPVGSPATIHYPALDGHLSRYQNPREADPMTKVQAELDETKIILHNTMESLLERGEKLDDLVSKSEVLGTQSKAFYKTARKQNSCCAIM
Briefly: co-IP.

For assay [2], the target named is T2, GFP-tagged human Ykt6 phospho-ablative mutant (S174A) (human) (UniProt O15498).
T2 sequence: T1 sequence with S174A
The experiment in a line: co-IP.

Assay [3] addresses T3, N-terminal half of Venus fused to Ykt6 Longin domain (human) (UniProt O15498).
T3 sequence: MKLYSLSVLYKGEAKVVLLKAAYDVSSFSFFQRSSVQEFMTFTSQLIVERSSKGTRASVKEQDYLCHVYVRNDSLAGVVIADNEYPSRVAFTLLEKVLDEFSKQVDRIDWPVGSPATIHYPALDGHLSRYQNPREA
The experiment in a line: split reporter.

With Stx17 (from UniProt P56962 1-302), the results for the binding result in assay [1] and in assay [2] were “binds weakly” and “binds”, respectively.

B1: C-terminal half of Venus fused to Ykt6 SNARE domain, wild type (domain or fragment, UniProt O15498 137-193)
chain: DPMTKVQAELDETKIILHNTMESLLERGEKLDDLVSKSEVLGTQSKAFYKTARKQNS
For B1, the binding result in assay [3] was “binds”.

B2: C-terminal half of Venus fused to Ykt6 SNARE domain, phospho-ablative (S174A) (domain or fragment, UniProt O15498 137-193)
chain: B1 chain with S38A
In the case of B2, the binding result in assay [3] is given as “binds”.
